# Whole data set: some 33,000 sequences, median “E-score (-0.5 to 0.5)” near -0.0014, cut for the highest 2% near 0.25. The list shows a part of the results.
# Target: T1, Cad1 (UniProt P24813)
# T1 sequence: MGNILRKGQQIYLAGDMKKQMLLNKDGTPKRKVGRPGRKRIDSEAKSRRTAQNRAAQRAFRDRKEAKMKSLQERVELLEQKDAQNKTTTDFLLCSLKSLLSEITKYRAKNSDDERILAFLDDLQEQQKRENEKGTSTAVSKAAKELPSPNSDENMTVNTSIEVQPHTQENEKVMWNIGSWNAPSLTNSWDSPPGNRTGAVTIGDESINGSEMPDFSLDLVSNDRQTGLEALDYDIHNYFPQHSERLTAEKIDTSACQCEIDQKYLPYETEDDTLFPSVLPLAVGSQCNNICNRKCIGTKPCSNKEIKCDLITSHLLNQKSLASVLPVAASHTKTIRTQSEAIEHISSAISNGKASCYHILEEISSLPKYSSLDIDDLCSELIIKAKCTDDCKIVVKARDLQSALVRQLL
# Experiment: PBM E-score (8-mer binding enrichment) (E-score (-0.5 to 0.5)); higher = stronger / more preferred TF binding
# Details: protein concentration: 100 nM; construct: GST-full length
# Outline: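 For each ungapped eight-base word taken together with its reverse complement, the Universal PBM Analysis Suite assigned an E-score. Binding data came from GST-tagged yeast transcription factors, applied at about 100-200 nM, on universal all-10-mer Agilent arrays made double-stranded by primer extension. Fluorescent anti-GST marked bound protein, and scans were normalised with masliner.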
row,Sequence,PBM E-score
1,AGAAAGAT,0.0047
2,CATACTTC,-0.0958
3,CTTCCTTC,-0.183
4,TGCGGCAA,-0.0179
5,GTAACCAC,-0.22
6,ATACCTGG,-0.261
7,CGATGTGA,-0.0321
8,TCCAAACA,-0.135
9,GACAAGAC,-0.0209
10,CGCTTTTC,-0.00565
11,CGAAGACG,-0.177
12,AACGTTGT,0.118
13,CAGTGAGA,-0.0333
14,AATCAGCC,0.0909
15,TTCTTCAA,0.0965
16,TAAGATAA,-0.0849
17,CTGTTGTC,0.0122
18,CTCTGGCA,-0.0245
19,CTTTTACC,-0.0262
20,CGTCTTAA,0.067
21,GTTTATGA,0.142
22,ATCTTGAA,0.11
23,AGGGTACA,-0.118
24,ACAGGGTC,-0.0301
25,CGTGGGCC,-0.0973

row,Sequence,PBM E-score
1,AGCAAAAT,0.213
2,CTGGACGA,-0.167
3,AAAACGGC,-0.127
4,CGGAACAA,0.29
5,AATGTTAC,0.0878
6,CGGTCTTA,-0.199
7,AGTCGGTC,-0.196
8,CACATACC,-0.0311
9,GGTGGCGA,-0.0722
10,GAACTTAC,0.0504
11,GTCACGAA,0.0125
12,CGGACAAA,0.0973
13,AGCTTCTC,-0.137
14,CTGCCCAC,-0.149
15,GCATAAGC,0.254
16,ACTCCTAC,-0.0357
17,AGACTCGG,-0.214
18,CAACATTA,0.106
19,ATACCAAG,0.141
20,ACGTCGAC,0.104
21,ACCACTCT,-0.187
22,ACTTATCG,0.128
23,CCGGTTCC,0.0262
24,CGAGCCCG,-0.134
25,TGCGAGAA,-0.0892

row,Sequence,PBM E-score
1,CCTACTAA,0.00658
2,CCCTAACC,-0.157
3,TATGCTGA,0.0891
4,ACTGCAAA,0.129
5,CCGTGGAA,0.043
6,CCTGGCAG,-0.044
7,ATCAGCAT,0.192
8,ATGAACCA,0.216
9,CGACCTCA,-0.0306
10,CCCTACGA,-0.147
11,AAGTGGGC,0.0945
12,ACGAGGAG,0.056
13,AAAAGTTT,-0.0158
14,CATGTGTC,0.0954
15,AATATACC,0.112
16,ACCATACC,-0.084
17,CCCAGAGA,-0.169
18,CTTCGAGA,-0.0393
19,GTCAAAAA,0.019
20,AAAGTGAC,-0.0945
21,CCTAGTCA,-0.0765
22,ACGACAAG,-0.127
23,GACAGTCC,-0.144
24,TAAATATA,0.277
25,ACTGGCCT,-0.0604

row,Sequence,PBM E-score
1,GCTTGGCA,-0.00418
2,ACGGCTGG,-0.09
3,CGCTGATA,0.0528
4,AGGTACGG,-0.168
5,ACAGGCGG,0.0639
6,CAGAGTAG,0.0425
7,ATGACATG,0.0289
8,CACTTGTA,0.0274
9,GCAGTGCA,0.0751
10,ACCACGGA,-0.141
11,TAACTGAA,-0.0483
12,TTAGAAAA,0.156
13,ACTTTTCG,0.124
14,CTGAGCTA,-0.208
15,ATTAACAG,0.0513
16,ATATTGTG,-0.0395
17,CAGTTCAC,-0.00384
18,AGAGGCAC,-0.176
19,CACACAAA,0.104
20,GTGCGCGA,-0.0729
21,ATGCCACG,-0.0934
22,CAGTATCA,0.0166
23,GTCAGCTA,0.0482
24,GTATGGCA,0.0746
25,ACAGCTGC,0.067

row,Sequence,PBM E-score
1,ATGATTGA,0.0737
2,ATAACCTG,-0.118
3,CTGACCTA,-0.0577
4,GGAGGGCC,-0.32
5,ACCACACA,0.0748
6,ATCTGCCA,-0.0722
7,CTCGCTTA,0.218
8,CCACGCAC,0.0497
9,ATATGGTC,0.108
10,AAATTGTT,0.0687
11,ATAACTTA,0.0937
12,CATTAACA,0.16
13,AGTGGAAT,-0.0609
14,CGACTGAG,-0.17
15,CCCCGCCG,-0.0935
16,GAGTTGTA,-0.0898
17,CGTTCCTC,-0.0193
18,AACCGAGG,-0.282
19,CACTGTTA,-0.00136
20,CCTAACGC,0.0492
21,CATCAGTA,0.0459
22,AGCTGAAT,-0.00032
23,CATCATGA,-0.0218
24,ACGACTCC,-0.0831
25,AACCGCAG,-0.0821

row,Sequence,PBM E-score
1,ACCGCTGC,-0.146
2,CATTGTAA,-0.00312
3,CCGGTAAA,0.0195
4,AAGAGAGC,-0.282
5,CAGCACTG,-0.141
6,GGCAAGGA,-0.0598
7,CACTGTAG,0.139
8,ATAGATAA,0.125
9,ACTCGACC,-0.0251
10,AGCCATCG,-0.0525
11,GACTGATC,-0.075
12,AAGCCCGC,0.0106
13,ACGAGCCA,-0.0145
14,GATTGACC,-0.149
15,AGAGCGCC,-0.0652
16,AGTACCGA,-0.124
17,GCCACAAC,0.123
18,CCACAGGC,-0.368
19,CAGACCAG,0.0044
20,CCTGTGCA,-0.0992
21,AGACATTC,-0.178
22,CCAAAGAA,0.0277
23,GATTGACA,0.207
24,AGGGTCTG,-0.246
25,AGTCTAAT,-0.031

row,Sequence,PBM E-score
1,CCTATCGC,-0.142
2,ATACCTCG,0.0669
3,AAGCGGGC,-0.231
4,AATCGCGA,0.196
5,CCGATCCG,-0.0335
6,TATGTCAA,0.203
7,AGACGGCA,0.0815
8,ATGGCGCC,-0.00769
9,AAGTCGCA,0.152
10,CCATAAGC,-0.113
11,ATTTAGTC,0.18
12,GCCAACTA,-0.0964
13,TGTCGTAA,-0.0835
14,CCATTCGC,-0.149
15,CCCGTGTC,-0.0991
16,CAGAGGAA,-0.0211
17,CGAAAAGC,-0.143
18,GATTCCGC,0.103
19,CACGGTCG,-0.184
20,TCTAGGCA,-0.194
21,CTGTCTAA,0.0936
22,TCCAAGCA,-0.0443

# As entered above.
# Under PBM E-score, TCTAGGCA has the entry -0.194
# Under PBM E-score, CACGGTCG has the entry -0.184
# Under PBM E-score, ATGGCGCC has the entry -0.00769
# Under PBM E-score, GATTCCGC has the entry 0.103
# Under PBM E-score, CCTATCGC has the entry -0.142
# Under PBM E-score, CAGAGGAA has the entry -0.0211

# From the supplement of paper PMC3334620
